Reference: US20260034237 (published 2026)

Experiment: general procedure: solution-phase peptide synthesis; HATU/DIPEA
Details: conjugation step

Substance | conjugation yield [%]
4-((2S,5S,8S,35S,36R,37R,38R)-8-(6-(2,5-dioxo-2,5-dihydro-1H-pyrrol-1-yl)hexanamido)-35,36,37,38,39-pentahydroxy-5-isopropyl-4,7,14-trioxo-33-((2S,3R,4R,5R)-2,3,4,5,6-pentahydroxyhexyl)-2-(3-ureidopropyl)-15,18,21,24,27,30-hexaoxa-3,6,13,33-tetraazanonatriacontanamido)benzyl ((S)-1-(((S)-1-(((3S,4S,5S)-1-((S)-2-((1R,2R)-3-(((1R,2S)-1-hydroxy-1-phenylpropan-2-yl)amino)-1-methoxy-2-methyl-3-oxopropyl)pyrrolidin-1-yl)-3-methoxy-5-methyl-1-oxoheptan-4-yl)(methyl)amino)-3-methyl-1-oxobutan-2-yl)amino)-3-methyl-1-oxobutan-2-yl)(methyl)carbamate | 28.23
{4-[(2S)-5-(carbamoylamino)-2-[(2S)-2-[(2S)-2-[6-(2,5-dioxo-2,5-dihydro-1H-pyrrol-1-yl)hexanamido]-6-(2-{4-[(16S,17R,18R,19R)-16,17,18,19,20-pentahydroxy-14-[(2S,3R,4R,5R)-2,3,4,5,6-pentahydroxyhexyl]-2,5,8,11-tetraoxa-14-azaicosan-1-yl]-1H-1,2,3-triazol-1-yl}acetamido)hexanamido]-3-methylbutanamido]pentanamido]phenyl}methyl N-[(1S)-1-{[(1S)-1-{[(3S,4S,5S)-1-[(2S)-2-[(1R,2R)-2-{[(1R,2S)-1-hydroxy-1-phenylpropan-2-yl]carbamoyl}-1-methoxy-2-methylethyl]pyrrolidin-1-yl]-3-methoxy-5-methyl-1-oxoheptan-4-yl](methyl)carbamoyl}-2-methylpropyl]carbamoyl}-2-methylpropyl]-N-methylcarbamate | 54.43
{4-[(2S)-5-(carbamoylamino)-2-[(2S)-2-[(2S)-2-[6-(2,5-dioxo-2,5-dihydro-1H-pyrrol-1-yl)hexanamido]-6-({1-[(17S,18R,19R,20R)-17,18,19,20,21-pentahydroxy-15-[(2S,3R,4R,5R)-2,3,4,5,6-pentahydroxyhexyl]-3,6,9,12-tetraoxa-15-azahenicosan-1-yl]-1H-1,2,3-triazol-5-yl}formamido)hexanamido]-3-methylbutanamido]pentanamido]phenyl}methyl N-[(1S)-1-{[(1S)-1-{[(3S,4S,5S)-1-[(2S)-2-[(1R,2R)-2-{[(1R,2S)-1-hydroxy-1-phenylpropan-2-yl]carbamoyl}-1-methoxy-2-methylethyl]pyrrolidin-1-yl]-3-methoxy-5-methyl-1-oxoheptan-4-yl](methyl)carbamoyl}-2-methylpropyl]carbamoyl}-2-methylpropyl]-N-methylcarbamate | 41.14
